# Laboratory results: PubChem BioAssay AID1963822 (ICCB-Longwood Screening Facility, Harvard Medical School, 2024)
# This is one part of the list.
# Assay: growth inhibitors of anaerobic choline-fed gram-negatives, minimal medium, absorbance (AID 1963822)
# Details: Gram-negative bacterium anaerobic choline minimal medium, measured here: choline growth z-score, timepoint 1, stronger effect = lower value
row,Compound,z-score
1,Cc1cc(C)c2c(C)c(C(=O)NCC3(N4CCOCC4)CCCCC3)oc2c1,-1.76
2,Cc1c(C(=O)NCC2(N3CCOCC3)CCCCC2)oc2cc(Br)ccc12,-2.47
3,Cc1c(C(=O)NCC2(N3CCOCC3)CCCCC2)oc2ccc(Cl)cc12,0.41
4,Cc1c(C(=O)NCC2(N3CCOCC3)CCCCC2)oc2ccc(Br)cc12,-0.29
5,Cc1c(C(=O)NCC2(N(C)C)CCCCC2)oc2ccc(Br)cc12,0.47
6,Cc1ccc2c(C)c(C(=O)NCC3(N(C)C)CCCCC3)oc2c1C,-0.35
7,Cc1c(C(=O)NCC2(N3CCOCC3)CCCCC2)oc2ccc(F)cc12,-1.63
8,Cc1c(C(=O)NCC2(N(C)C)CCCCC2)oc2cc(Br)ccc12,0.37
9,Cc1c(C(=O)NCC2(N(C)C)CCCCC2)oc2ccc(Cl)cc12,0.7
